In patent US12384969B2, “Enhancement of soil characteristics with lactobionate compounds” (Leprino Foods Company, priority 2017, dated 2025):

Assays:
[1] = Total soil organic carbon (SOC), laboratory soil incubation; settings: for Increase in SOC: at 2 weeks, relative to control soils
[2] = Soil nitrate (NO3-) concentration in K2SO4 extracts, laboratory soil incubation
[3] = Gravimetric soil water content (GWC) / soil water retention versus water potential, laboratory soil incubation; settings: two-month experimental period

SMILES	Increase in SOC [1]	NO3− ([2]; Ak soil, HC, 1 mo)	NO3− ([2]; Ak soil, HC, 2 mo)	NO3− ([2]; Ak soil, HC, 2 wks)	NO3− ([2]; Ak soil, LC, 1 mo)	NO3− ([2]; Ak soil, LC, 2 mo)	NO3− ([2]; Ak soil, LC, 2 wks)	NO3− ([2]; Fr soil, HC, 1 mo)	NO3− ([2]; Fr soil, HC, 2 mo)	NO3− ([2]; Fr soil, HC, 2 wks)	NO3− ([2]; Fr soil, LC, 1 mo)	NO3− ([2]; Fr soil, LC, 2 mo)	NO3− ([2]; Fr soil, LC, 2 wks)	Total SOC relative to control soils ([1]; at the end of the two-month period)	Increase of soil water content compared to unamended soils [3]	NO3− ([2]; at 2 months)
O=C([O-])[C@H](O)[C@@H](O)[C@H](O[C@@H]1O[C@H](CO)[C@H](O)[C@H](O)[C@H]1O)[C@H](O)CO.O=C([O-])[C@H](O)[C@@H](O)[C@H](O[C@@H]1O[C@H](CO)[C@H](O)[C@H](O)[C@H]1O)[C@H](O)CO.[Ca+2] [Ca-LB, calcium lactobionate]	~1.5 mg g-soil	0.12 ^E μg g-soil	0.15 ^C μg g-soil	0.22 ^C μg g-soil	0.05 ^E μg g-soil	2.24 ^C μg g-soil	0.30 ^C μg g-soil	0.05 ^E μg g-soil	0.75 ^C μg g-soil	0.29 ^C μg g-soil	0.02 ^E μg g-soil	0.74 ^C μg g-soil	0.17 ^C μg g-soil	–	–	–
O=C([O-])[C@H](O)[C@@H](O)[C@H](O[C@@H]1O[C@H](CO)[C@H](O)[C@H](O)[C@H]1O)[C@H](O)CO.[K+] [K-LB, potassium lactobionate]	~1.5 mg g-soil	0.13 ^E μg g-soil	0.21 ^C μg g-soil	0.17 ^C μg g-soil	0.22 ^E μg g-soil	0.09 ^C μg g-soil	0.17 ^C μg g-soil	0.24 ^E μg g-soil	0.09 ^C μg g-soil	0.04 ^C μg g-soil	0.23 ^E μg g-soil	0.08 ^C μg g-soil	0.19 ^C μg g-soil	doubled	1-6 times	–
N.O=C(O)[C@H](O)[C@@H](O)[C@H](O[C@@H]1O[C@H](CO)[C@H](O)[C@H](O)[C@H]1O)[C@H](O)CO [NH4-LB, ammonium lactobionate]	–	0.96 ^E μg g-soil	199.58 ^A μg g-soil	0.91 ^C μg g-soil	0.24 ^E μg g-soil	154.19 ^AB μg g-soil	1.27 ^C μg g-soil	2.09 ^E μg g-soil	46.87 ^B μg g-soil	0.10 ^C μg g-soil	0.02 ^E μg g-soil	88.69 ^AB μg g-soil	0.50 ^C μg g-soil	–	–	46-200 ppm
